In US5053070A, “Pyrimidine derivatives, preparation processes thereof, herbicide containing the same, and herbicidal compositions containing the same along with other active ingredient” (Mitsui Toatsu Chemicals, Incorporated, priority 1988, dated 1991):
At least one read-out could not be matched to a standard name with certainty.

Tested on: johnsongrass
Assay: Upland foliar application test by mixed formulations (Test 7)
Assay type: in vivo
Conditions: applied alone, 0.2 kg/ha, 30th day
Description: Resin-made 1/10,000-are pots were filled with the soil of an upland field. Redroot pigweed, morningglories, johnsongrass, barnyardgrass and green foxtail were separately seeded and were allowed to germinate in a green house. When each plant grew to the stage of 2-3 leaves, an emulsion formulated from predetermined amounts of two test compounds of different kinds in a similar manner to the method described in Formulation Example 16 was diluted with water to a predetermined dilution rate and then sprayed at an application rate equal to 5 l per are onto the foliage of each plant by means of a pressure-operated ULV (ultra low volume) sprayer. Influence to the weeds were observed on the 30th day after the spray of the herbicides. In the table, each Ea means an acutally measured value of herbicidal activities when two kinds of herbicides were mixed. Each Ec is an expected value for herbicidal activities, calculated in accordance with the below-described calculation formula proposed by Colby et al. [Colby, S. R., Weed 15, 20-22 (1967)]. Ea>Ec indicates the existence of synergistic action while […] action. [formula] Ec: Growth inhibition rate (%) expected when Ingredient I and Ingredient II are mixed.
Ex: Growth inhibition rate (%) when treated with Ingredient I alone.
Ey: Growth inhibition rate (%) when treated with Ingredient II alone.

## CCC/C(=N\OCC)C1=C(O)CC(CC(C)SCC)CC1=O (stereo not shown) [sethoxydim, reference compound]
  Herbicidal effects (%) Johnsongrass Ea: 85%
